Data taken from PubChem BioAssay AID651803 (National Center for Advancing Translational Sciences (NCATS), 2012).
In all, about 1,200 compounds went through this assay and fewer than 10 were called active. Calls follow the shape of the dose curve; as a rule, active = well fitted curve in the direction sought with a large enough effect; inconclusive = small, poorly fitted or top-dose-only effect, or another doubt; inactive = no such curve, though single readings can be large or run the other way. This is one part of the list.

Chains of the proteins cited; added tags and fusions are not shown. Lines headed by an entry give the natural chain unless they say otherwise; changes in a name come on top.
UniProt P11308: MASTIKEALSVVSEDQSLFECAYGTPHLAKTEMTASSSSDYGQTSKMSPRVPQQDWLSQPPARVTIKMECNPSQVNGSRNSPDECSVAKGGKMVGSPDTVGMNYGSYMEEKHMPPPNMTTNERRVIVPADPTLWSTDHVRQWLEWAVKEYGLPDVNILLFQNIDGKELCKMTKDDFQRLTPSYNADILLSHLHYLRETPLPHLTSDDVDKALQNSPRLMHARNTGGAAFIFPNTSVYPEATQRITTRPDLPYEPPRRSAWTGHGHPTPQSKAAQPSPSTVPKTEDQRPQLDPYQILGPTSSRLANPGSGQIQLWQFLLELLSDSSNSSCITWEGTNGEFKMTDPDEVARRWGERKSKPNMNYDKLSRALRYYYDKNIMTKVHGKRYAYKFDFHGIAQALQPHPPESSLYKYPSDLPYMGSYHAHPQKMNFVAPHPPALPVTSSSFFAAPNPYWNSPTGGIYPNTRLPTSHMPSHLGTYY

Molecular target: Transcriptional regulator ERG (Homo sapiens) (UniProt P11308)
Assay: qHTS for Small Molecule Inhibitors of the ERG Ets/DNA interaction: TR assay against cherry picks; also: % of control where 0% means no effect
Details: ERG Ets domain-DNA fluorescence polarization, Texas red probe; at 154 µM (top of the series)
Procedure, shortened: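 Polarization read sequentially for fluorescein (ex 480/em 535 nm) and Texas red (ex 555/em 632 nm) probes, 5 nM and 100 nM solutions, displaced from His-ERG Ets domain (1 uM solution), pH 7.5 Tris/KCl/EDTA/DTT buffer.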

Activity change, negative = inhibition, inactive:
CCOc1ccc(S(=O)(=O)N2CCC(C(=O)NCC3CCCO3)CC2)cc1C (stereo not drawn) -1.71%
Cc1c(OC(C(=O)O)c2ccccc2)ccc2c(-c3ccccc3)cc(=O)oc12 (stereo not drawn) 3.4%
Cc1cccc(NC(=O)NCCCCc2ccccc2)c1 -2.69%
CN1C(=O)NC(NC(=O)c2ccncc2)(C(F)(F)F)C1=O (stereo not drawn) -2.46%
COc1ccc(/C=N/n2c(-c3n[nH]c4c3CCC4)n[nH]c2=S)cc1 -2.85%
CCN1CCCC(OC(=O)Nc2ccccc2)C1 (stereo not drawn) -1.85%
Cc1ccc([C@@H]2C3COCC=C3C(C#N)=C(N)C2(C#N)C#N)o1 (stereo partly drawn) 70.2%
Cc1cc(C)c(S(=O)(=O)N2CCN(C(=O)N3CCOCC3)CC2)c(C)c1 3.47%
CC1(C)CC(=O)C2=C(C1)OC(=O)CC2c1cccs1 (stereo not drawn) -15.7%
COc1ccc(NC(=O)C2=NN(c3ccccc3)C(=O)CC2)cn1 -2.68%
CCn1cc(C(=O)N2CCCC(N3CCN(c4cccc(C(F)(F)F)c4)CC3)C2)cn1 (stereo not drawn) -9.8%
O=C(CCn1cccc1)NCc1ccccc1 3.42%
COc1cc(CNc2ccc(O)cc2)cc(Br)c1OCc1ccccc1 -2.9%
O=C(NCCSc1c[nH]c2ccccc12)c1ccc(Cl)cc1 -20.7%
C=CCn1c2ccccc2c2nnc(SCC(=O)NC(C(=O)OC)C(C)C)nc21 (stereo not drawn) 3.85%
O=C(CSc1nc2ccccc2o1)N/N=C/c1ccc(C(=O)O)cc1 -6.83%
Cc1ccccc1C(=O)Oc1c(Sc2ccccc2)c(C)nn1C(C)(C)C -15.2%
Nc1ccc(S(=O)(=O)Nc2ncccn2)cc1 -5.69%
CCCCN(C(=O)Cc1ccc(S(=O)(=O)N2CCOCC2)s1)c1c(N)n(CCCC)c(=O)[nH]c1=O 3.08%
COC(=O)C/C(C)=N/Nc1ccc(S(=O)(=O)N2CCCC2)cc1[N+](=O)[O-] -13.7%
CN(C)c1ccc(/C=C(\C#N)c2nc(-c3ccc(Cl)c(Cl)c3)cs2)cc1 -2.06%
COc1cccc(NC(=O)C2CCN(c3nn4cc(-c5ccc(F)cc5)nc4s3)CC2)c1 -10.8%
CC(OC(=O)C1CCN(S(=O)(=O)c2ccccc2C(F)(F)F)CC1)C(=O)N(C)Cc1ccccc1 (stereo not drawn) 1.27%
Cc1cccc(-n2c(CNC(=O)c3ccc(S(=O)(=O)N4CCCC4)cc3)n[nH]c2=S)c1 0.804%
CCc1cc(C(=O)OC)c(NC(=O)CN2CCN(C(=O)C3CCCO3)CC2)s1 (stereo not drawn) -6.31%
Cc1cc(C(=O)COc2ccccc2C(N)=O)c(C)n1C 1.6%
Cc1cc(/C=C(\C#N)C(=O)Nc2ccccc2)c(C)n1-c1ccc(C(=O)O)cc1 -0.126%
COc1ccc(C)cc1NS(=O)(=O)c1cccc2nonc12 1.7%
COCCNC(=O)Cn1c(=O)n(CCCC(=O)NCc2ccc3c(c2)OCO3)c(=O)c2sccc21 -16.3%
CC(=O)c1cccc(S(=O)(=O)N2CCC(c3nc4ccccc4[nH]3)CC2)c1 2.17%
CCOC(=O)COc1ccc(/C=C2/C(=O)NN(c3ccc(F)cc3)C2=O)cc1OC 4.26%
COC(=O)c1ccc(NC(=S)N2CCN(C(=O)c3ccco3)CC2)cc1 -6.35%
CCn1cc(S(=O)(=O)Nc2ccc(Cl)cc2F)cn1 -16.6%
CCOC(=O)c1ccccc1NC(=O)COC(=O)C(Cc1c[nH]c2ccccc12)NC(C)=O (stereo not drawn) -11%
Nc1nc(N2CCN(Cc3ccccc3)CC2)n[nH]1 -12.8%
CCCn1c(=N)n(CC(=O)c2ccc([N+](=O)[O-])cc2)c2ccccc21 -7.8%
CSc1nc(-c2ccc(Cl)cc2)nn1C(=O)c1ccccc1 0%
CCN(CC)c1cccc(OC2=NS(=O)(=O)c3ccccc32)c1 6.44%
COc1ccc(NC(=O)CSc2cccc3cccnc23)c(OC)c1 0.653%
COc1cc2nc(N3CCN(C(=O)[C@@H]4CCCO4)CC3)nc(N)c2cc1OC -17.2%
COc1ccc(N/C=C(\C(C)=O)c2ccc(OC)c(OC)c2)cc1OC 1.84%
COc1ccc(C(=O)N2CCCC(CCC(=O)NCc3ccccc3F)C2)c(OC)n1 (stereo not drawn) 0.16%
Cc1ccc(C(=O)N2CCCCC2C(=O)O)cc1S(=O)(=O)N1CCCCC1 (stereo not drawn) -2.45%
NC(=O)c1ccccc1NCC(=O)c1ccc(F)cc1 3.24%
COC(=O)/C(=C/Nc1ccc(O)cc1)[N+](=O)[O-] 13.2%
Cc1ccc(N(CCCCN2C(=O)c3ccccc3C2=O)C(=O)c2ccc(Cl)s2)cc1 4.74%
Cc1ccccc1OCC(=O)OCC(=O)NCCc1ccccc1 -4.25%
CCN1CCN(C(=O)C(=O)c2cn(CC(=O)N3CCCCCC3)c3ccccc23)CC1 12.4%
CCCc1nc2oc3c(OC)ncnc3c2c2c1COC(C)(C)C2 -20.4%
O=C(NCC1CCN(S(=O)(=O)c2ccccc2)CC1)Nc1ccc(F)cc1 1.59%
CC1(C)C[C@@H]1C(=O)N/C(=C\CCCCSC[C@H](N)C(=O)O)C(=O)O 3.22%
Nc1ccc(C(=O)O)cc1 5.57%
COc1ccc(N=c2scc(C)n2CCCN2CCCC2=O)cc1 -8.6%
O=C(CN1C=NS(=O)(=O)c2ccccc21)Nc1ccc(Br)cc1 -7.5%
Nc1cc(C(=O)OCC(=O)NCCCc2ccccc2)ccc1Cl -6.58%
CN(C)S(=O)(=O)c1ccc(C(=O)N(c2ccccn2)c2ccccn2)cc1 1.38%
CCN(CC(=O)Nc1ccccc1C(F)(F)F)C(=O)c1ccc(N2C(=O)CCC2=O)cc1 4.04%
Cn1cc2c(=O)n(/N=C/c3ccccc3)cnc2n1 4.94%

A portion from further up, as a working copy:
Activity change, negative = inhibition, inactive:
O=C(CCn1cccc1)NCc1ccccc1 3.42%
COc1cc(CNc2ccc(O)cc2)cc(Br)c1OCc1ccccc1 -2.9%
O=C(NCCSc1c[nH]c2ccccc12)c1ccc(Cl)cc1 -20.7%
C=CCn1c2ccccc2c2nnc(SCC(=O)NC(C(=O)OC)C(C)C)nc21 (stereo not drawn) 3.85%
O=C(CSc1nc2ccccc2o1)N/N=C/c1ccc(C(=O)O)cc1 -6.83%
